Out of some 53,000 sequences screened, about 3,700 (7%) were called active.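 How the source made its calls: active means gene knockdowns whose robust z-score for IL-1 alpha signal is at least 2 or at most -2, so actives lie on both sides; inactive means the rest.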 The list shows a part of the results.

The assay can be described thus: Components of the Cytosolic LPS Sensing Pathway: Gene Identification via Genome-wide siRNA Screen.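 Further: robust z of the log signal after scaling to non-targeting control siRNA wells of the plate.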 The settings on record: RAW264.7 macrophages, IL-1a HTRF, actives lie on both sides, screened at 100 nM (by protocol), cells primed 5 h with Pam3CSK4 first. The gist of the method:
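RAW264.7 mouse macrophages reverse-transfected with single siRNAs (100 nM final) for 48h, primed with Pam3CSK4 for 5 hours, then transfected with LipidA for 24 hour. Supernatant IL-1a read by HTRF; values normalized to negative-control median, log-transformed robust z-scores.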
For orientation: TR-FRET usually uses a lanthanide donor and a delayed reading to cut background.
In the case of GGUCUUGGGAGAAGAUACATT against Gem, the z-score is inactive: -1.09. Take GCUCUUCUCAGAGUGUGUATT against Rwdd3: the z-score is inactive: -1.76. In the case of GGCUUCUUUUCACAAAUAGTT against Nipsnap1, the z-score is inactive: -0.0394. For GGCUUAUACAAGGUGCUCATT against Olfr661, the z-score was inactive: -0.416. Turning to GCUUUUAAAGCAUGGGCAGTT against Alb, the z-score was active: 2.44. Under GCUUUGUGGAGUUCAACCUTT against Kcnh6 stands inactive: 0.234; under GGACCUAAUCCAUAAGGUCTT against Pcyox1l, inactive: -0.379. In the case of GGACUAAAAGAUUGGUGGUTT against Polr2k, the z-score is inactive: -1.41. As to GGAAAACCAGAAAGAAUUUTT against Crnkl1, the z-score was inactive: -0.334. For CCUUCUUUAAACCUCCAUGTT against Vegfc, the z-score was inactive: 0.347.

Turning to GCGAUCCUGACUUGUUCAATT against Kdm6b, the z-score is active: 2.27.

In the case of GGGAACCGCUUAUAUGUCCTT against Tbx21, the z-score is inactive: -0.195. For the sequence GCCUUAGGCAUUUAGAUUUTT against Zbed4, the z-score is inactive: 1.33. On to GGUGCAUGCACUGAAGAAGTT against Mpv17, for which the z-score is inactive: 1.39. For GGUCCUCCCAUAAUCUAGUTT against Lrrc75a, the z-score is inactive: 1.18. As to GGAAGGGACUGAUCGGUACTT against Igsf8, the z-score was inactive: 1.61. In the case of GGGUAUCCAGUAUUUGAUCTT against Iqsec2, the z-score is inactive: -0.544.

For CGAAUGAAAGAAUACCGUGTT against Dnajc6, the z-score is inactive: 0.0901. As to GGUUUUUUUCUUCACAGGUTT against Olfr127, the z-score is inactive: 0.309.

In the case of GGAAAAACUCCCUCGGUACTT against Rps11, the z-score was inactive: 0.683. Regarding GAAAGUGUUCAGGAAGCUGTT against Klra19, the z-score is inactive: -0.241. Regarding GGUGAAAAAGGUUAGAAAATT against Wasf3, the z-score is inactive: -0.164.

Take GGUAGCAGACAGCUACCCUTT against Tnfsf15: the z-score is inactive: 0.405. Take GGGCAUUUCUUUGUCUAUCTT against Nme1: the z-score is inactive: 1.09. With GGCAGCAUGGAGAACGAGATT against Camk1, the z-score is inactive: -1.03. Take GCAAUCGACCGCAUCCUAATT against Gm4827: the z-score was inactive: -1.32.

With CGAGCACUAUUUUGGAUUATT against Usp12, the z-score was inactive: 0.0102.

As to GGUCAGUGAAGUUUAACAATT against Fam219b, the z-score is inactive: -0.0232.

Consider GGUAAAGUGGGAUGUGGAATT against Mysm1, for which the z-score was inactive: -1.03. Take CCUGUGCAUACGUUUGGCATT against Olfr1335: the z-score was inactive: -0.754. Under GGACUUGUUCUACAAGUACTT against Srsf9 stands inactive: 0.682; under GGUCUUCAAUAAACUCAUCTT against Bzw2, inactive: -0.769; under GGAGCUGAACAUGUUAACUTT against Shq1, inactive: -0.274. Take GCACAAACCUGUGGCAUUUTT against Cacnb3: the z-score was inactive: -0.234. GGUUAGCAGGGACCUAAUGTT against Zfp94: the z-score was active: 2.57. The value for GGCCGUUAUGUUUUACAAGTT against Dnajc19 was inactive: 0.00748; that for CCCUGUAUCAUGCACGUAATT against Kcnj4 was inactive: 0.678. Take GGUUUGUUUUCAGAUGAAGTT against Washc2: the z-score was inactive: 0.155. Under GCUCCCACACUUCAUCCCUTT against Sh3d21 stands inactive: 1.19; under CCCAUUUAAAUACGGGAUUTT against Txlng, inactive: 0.832; under CGACUAGGCAUCUAUGAAGTT against Kremen2, inactive: -1.19.

With GCCCUUAGAAGUCAUUGAGTT against Lypd1, the z-score is inactive: -0.257. Under GGUUUAUCCUACAGCGAAGTT against Prl8a1 stands inactive: 1.12.

GGUCCCUGGAAACCAUCAGTT against Ssxb2: the z-score was inactive: -1.54. Under GGCUCAAUUUGGAAAGGACTT against Anxa8 stands inactive: -0.586; under GGCCAAUCAGCCAUCCUAUTT against Lilrb4a, inactive: 0.0446; under GAUCAUCGGCAUUUUGAACTT against Il4, inactive: -0.527. Under GCAAUGGACUGACAUGUCATT against Csdc2 stands inactive: -0.339; under GGCUGACUAUGCUGCCACATT against Npdc1, inactive: 0.457; under GGAAGCACAAGUGCCACUATT against Klf13, inactive: -0.591.

With GGUACCUGAAUGACUUAUATT against Hcfc1, the z-score is inactive: -0.207. As for GGAGAAGUUACUGAUGAGATT against Ghdc, the z-score is inactive: -0.713. Regarding GGUAGCUAUUAAAGAAUCCTT against AW209491, the z-score is inactive: 1.12. For GGGACUUGGUUCAAACGACTT against Tbx3, the z-score was inactive: -0.00336.

Consider GGACCAAGCCAUCUGAGUUTT against Tmem114, for which the z-score was inactive: 1.26. The value for GGGUGGAGACUUGGAAAUGTT against Spag11a was inactive: -0.69; that for CCAGUAAUUAGCAUGUACGTT against Olfr1370 was inactive: 0.441. Regarding GGACAGGUGUCGAUCAAACTT against Zfp280c, the z-score was inactive: 0.0987.

Consider GGCAACCAAAACGAUACAATT against Entpd7, for which the z-score was inactive: 0.637. The value for GGAGAAACGCAUCAACCCUTT against Pou2f2 was inactive: -0.621; that for CCUAAAAGACUUCAUCCGUTT against Kcnh8 was active: 2.32.

Regarding GCCAGUGACUGUCCUUACATT against Dag1, the z-score is inactive: 0.411. Under CCUUAUAGAGAGAGCCCUGTT against Tcf25 stands inactive: -1.23; under GGCUAAUACCAAACCUAUATT against Spata20, inactive: -0.251; under GCUUCAGCGUGAAAAAGCCTT against Gorab, inactive: 0.0143. Turning to GGAAGAUAAGCUAAAUAUCTT against Clca3b, the z-score is inactive: 0.123. Consider GCCCACAUUUGUAUUACUUTT against Rabepk, for which the z-score is inactive: -1.08. With GGUUGGUAGGAUGGACAAGTT against Rab11b, the z-score was active: 2.45. Turning to GGUCUUGAGGUCAUUCUCCTT against Il24, the z-score is inactive: 0.396. As for GGGAUAAGGGAAGUUAGGUTT against Glt28d2, the z-score is inactive: -0.457.

For GCCAAAUUAAGUAUCUUGATT against Lamp2, the z-score is inactive: 0.371.

Turning to GGCAUUGCUUCAUGGCUCUTT against Tmprss5, the z-score is inactive: -0.166. Turning to CCUUCAGUGGUUUGAACCGTT against Dnd1, the z-score was active: 2.59. As for GGCCAUUUUUGAAAGCUAATT against Dcdc2a, the z-score is inactive: -1.08. Under GGAGGUAGAUGAACUUUAATT against Syt13 stands inactive: 0.377; under CCAAGUAGAUUGUACCUAUTT against Fuca1, inactive: 1.67; under GGAUCCGUGAAUGUAGUCATT against Rapgef4, inactive: -0.793. In the case of GGUGAUGCUAAGAAGUUACTT against Rnf122, the z-score was inactive: -1.57. The value for GGAAAUCACUGGUUUUCAATT against Asah2 was active: 2.88. Regarding GGACAUUCGGCUAUAGCACTT against P2ry2, the z-score is inactive: -1.02. Turning to CCUCCAGAUAACAAAUGCATT against Dlx3, the z-score was inactive: 0.335. In the case of CCAACUAAUCCCAUAUUCCTT against Tmem43, the z-score is inactive: 0.0511.

With GGCCCACAAAAGGUAUGAATT against AW551984, the z-score is inactive: 1.71.

Consider GCUCAGCUAUCAAAACUUUTT against Snx20, for which the z-score is inactive: -0.703. The value for GCCUUACCAACUUCAGUUATT against Rps27l was inactive: 0.263; that for GGACGAUUCUUUUAUUUGATT against Fam78b was inactive: -1.22; that for GGAAAGAUUGUACCAGUUGTT against Cmpk1 was active: 2.58. As to GGUGGUGUUUGAAAAGUGUTT against Mst1, the z-score is inactive: -0.571. On to GGUCAAGUACAAAAGAGAUTT against Nebl, for which the z-score is inactive: -0.39.

As for GCGAACUUUUACAUUUCGATT against Gmpr, the z-score is inactive: 0.272.

As to GGAGACCAUAAACAUAUUUTT against Drc3, the z-score is inactive: -1.49.

For GGAAAAAGUGACAUUUUCUTT against AW551984, the z-score was inactive: 1.32.

In the case of GGAGAAUUACUCCUUUUUGTT against Med9, the z-score is inactive: 0.928. In the case of CCAUAAUAGAGGCAAUUACTT against Wscd1, the z-score is inactive: 0.302. Regarding “GGUUUUACAUCUAUGGAGUTT against 4933417A18Rik”, the z-score is inactive: -0.449. As for CCUGAAGAGGAUGAUAUGGTT against Fam221a, the z-score is inactive: 0.144. Consider CGCACGAAGCUCUUUGUGUTT against Tmem106a, for which the z-score is inactive: 0.348. For the sequence GGUCCAAGCUUAAAUUUGUTT against Mrpl16, the z-score was inactive: 1.05. Under GACCGGUCAAGUUUUUUCGTT against Pfn1 stands inactive: -0.164; under GGAGUUGUGAAUUUCUCGUTT against Sri, inactive: -0.198; under GGAAAAAGGAGAGAAUGAATT against Ccdc38, inactive: -1.69.

For the sequence GGAGAAGCUGAAGACCAAGTT against Rpl35, the z-score was inactive: -0.00694. GCGAGAUGUAGUAACAGAGTT against Adam15: the z-score was inactive: 1.06. GCAUUGUGCUCAAAUCUGCTT against C1qtnf7: the z-score was inactive: -0.168.

Take GGAUUGAGGCUAAGUAGCGTT against Tnfrsf13b: the z-score was inactive: 0.00112. Consider GCAUCAUGUCAUUCUUUACTT against Fstl5, for which the z-score was inactive: 0.00517.

For the sequence GCAAGCCAACGUGUCGGAATT against Prpf31, the z-score was inactive: 1.38.

(Values after PubChem BioAssay AID1508600 (Functional Genomics Laboratory (NCATS/FGL), 2020).)
